Results from PMC12040169 (PLOS Biology, 2025).
The other results are listed elsewhere or left out.

Each compound was assayed on T1, CTL2-GFP (C. trachomatis L2/434/Bu, GFP-expressing). Conditions: bulk GFP, single well; 28.5 h, 10 µM; inhibitor.
T1 construct: L2/434/Bu, GFP-expressing
Parameters: species or system HeLa; Intracellular C. trachomatis growth in HeLa cells, bulk GFP fluorescence relative to DMSO

SMILES | % of control remaining
Clc1nc2ccccc2nc1OCCOc1ccccc1 [CBK113367] | 94.4253%
COCCNc1nc(-c2ccoc2)cn2ccnc12 [CBK066416] | 153.649%
CCN(C(=O)c1n[nH]c2c1CCC2)C1CCN(C)CC1 [CBK281870] | 130.151%
Cc1cc(C)nc(N/N=C/c2cn(-c3ccccc3)nc2-c2ccc([N+](=O)[O-])cc2)n1 [CBK262864] | 118.773%
FC(F)(F)c1ccc(OCCN2CCNCC2)nc1 [CBK113462] | 121.486%
Cc1nc2c(c(N(C)C)n1)CCN(C(=O)C(C)n1cc(Cl)cn1)C2 (stereo not drawn) [CBK307293] | 155.563%
CC(C)c1ccc(OCCc2cc(C3CCN(C(=O)CC4CCCC4)C3)n[nH]2)cc1 (stereo not drawn) [CBK286129] | 60.9406%
Cc1cc(C)n(CCCN(C)Cc2ccc(N3CCCC3=O)cc2)n1 [CBK281827] | 125.045%
CCCC(=O)NC[C@H]1CC[C@H](c2nnc(-c3ccsc3)o2)CC1 [CBK283362] | 118.408%
COc1cc(Nc2nc(-c3ccc4[nH]ccc4c3)cn3ccnc23)cc(OC)c1OC [CBK038069] | 199.938%
O=C(Nc1cccc(-c2ccc3nncn3n2)c1)c1ccc(F)cc1 [CBK287682] | 97.8653%
Clc1ccc(CN2CCC(Oc3cncc(OCCN4CCOCC4)n3)C2)cc1Cl (stereo not drawn) [CBK084477] | 65.3238%
CCc1cccc(CC)c1NC(=O)CN(c1cccc(Br)c1)S(C)(=O)=O [CBK265986] | 129.061%
CCCc1c(C(=O)N2CCN(C)CC2)cnn1-c1cc(Cl)cc(Cl)c1 [CBK107375] | 98.8751%
Cc1cc(NS(=O)(=O)c2ccc(Nc3nc(-c4ccc(Cl)cc4Cl)cs3)cc2)no1 [CBK267298] | 68.4615%
COc1ccc(/C=C(/NC(=O)c2cccc([N+](=O)[O-])c2)C(=O)O)cc1OC [CBK263362] | 122.209%
COc1cc(/C=C2/NC(=O)N(c3cccc(Cl)c3)C2=O)ccc1OCC(=O)Nc1ccc(F)cc1 [CBK265691] | 125.845%
COc1ccc(N2CCN(CC(=O)N3CCC(C(N)=O)CC3)CC2)cc1 [CBK268993] | 112.806%
Cc1nc(-c2cccs2)cc([C@H]2CN3CC[C@H]2C[C@@H]3CNC(=O)c2ccco2)n1 [CBK289127] | 104.104%
S=C(NC1=NCCS1)Nc1ccccc1 [CBK016591] | 129.302%
O=C1CCC(=O)N1CCOc1nccnc1OC1CCN(Cc2ccccc2F)CC1 [CBK084337] | 91.8674%

Structural class: the compounds so far with two or more sulfur atoms
SMILES | % of control remaining
Cc1cc(NS(=O)(=O)c2ccc(Nc3nc(-c4ccc(Cl)cc4Cl)cs3)cc2)no1 [CBK267298] | 68.4615%
S=C(NC1=NCCS1)Nc1ccccc1 [CBK016591] | 129.302%
